In the series the test system is patients with obstructive sleep apnea. The experiment in a line: Table 1 summary of efficacy and side effects in sleep apnea, compared with acetazolamide, topiramate and zonisamide data. The note with it: efficacy rating divided by side effect total rating. It is filed as in vivo, human. The text has this:
The results from Example 1 and 2 are summarized in table 1, below, where the results are further compared with data reflecting the effect of acetazolamide, topiramate and zonisamide in sleep apnea.

Where “and” joins values, the source holds several entries; their conditions need not be identical. Identical values can stand only once.

The results in this text go back to patent publication US10617694B2 (priority 2016, dated 2020).

For the compound `CC(=O)Nc1nnc(S(N)(=O)=O)s1` [Acetazolamide], the Efficacy/side effect ratio was 1/2.7 = 0.38 and 2/2.7 = 0.74. On to `CC1(C)O[C@@H]2[C@@H](CO[C@@]3(COS(N)(=O)=O)OC(C)(C)O[C@@H]23)O1` [Topiramate], for which the Efficacy/side effect ratio is 1/3.7 = 0.27.

On to `NS(=O)(=O)Cc1noc2ccccc12` [Zonisamide], for which the Efficacy/side effect ratio was 1/3.3 = 0.30.
